Reference: PMC10492782, “Exploiting the aggregation propensity of beta-lactamases to design inhibitors that induce enzyme misfolding” (Nature Communications, 2023)
These are yes or no findings as the source states them, for the method shown.

By UniProt entry, the sequences of proteins in these tests, tags left out. Residues count along the entry.
UniProt P62593, residues 24-286: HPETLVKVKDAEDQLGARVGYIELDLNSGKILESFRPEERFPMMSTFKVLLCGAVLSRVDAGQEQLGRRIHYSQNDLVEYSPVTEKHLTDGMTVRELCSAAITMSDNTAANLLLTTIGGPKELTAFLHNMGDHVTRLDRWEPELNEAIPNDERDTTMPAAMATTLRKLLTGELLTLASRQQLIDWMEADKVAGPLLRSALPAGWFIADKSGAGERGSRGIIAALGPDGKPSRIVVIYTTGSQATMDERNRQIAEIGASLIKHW

Target: TEM-1 beta-lactamase (E. coli) (UniProt P62593)
Assay: SEC-MALS; S75 column (GE Healthcare) coupled to multiple angle light scattering (Wyatt); purified recombinant protein without the GFP tag; both purified

TEM-1 beta-lactamase (from UniProt P62593 24-286) (enzyme)
binding: no binding
